Drawing on patent CN116710484A, this text covers binding for 1 molecule.

This assay deals with T1, mouse recombinant WARS1 protein (mouse) (UniProt P32921).
T1 sequence (looked up): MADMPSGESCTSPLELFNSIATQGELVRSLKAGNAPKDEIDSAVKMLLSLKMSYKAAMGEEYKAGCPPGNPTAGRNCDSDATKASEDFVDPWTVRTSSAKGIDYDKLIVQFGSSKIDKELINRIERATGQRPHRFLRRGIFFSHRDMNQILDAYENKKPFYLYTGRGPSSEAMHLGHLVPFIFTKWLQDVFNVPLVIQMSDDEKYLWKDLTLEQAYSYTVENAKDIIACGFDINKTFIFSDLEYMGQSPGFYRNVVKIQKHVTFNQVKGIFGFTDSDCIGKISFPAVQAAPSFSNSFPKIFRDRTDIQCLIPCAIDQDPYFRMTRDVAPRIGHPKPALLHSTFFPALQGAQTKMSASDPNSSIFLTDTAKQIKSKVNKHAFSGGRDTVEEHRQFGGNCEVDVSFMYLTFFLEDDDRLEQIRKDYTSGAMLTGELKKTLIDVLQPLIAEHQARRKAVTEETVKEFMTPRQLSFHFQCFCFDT
The experiment in a line: immunoblot, recombinant mouse WARS1 and J774.1A culture supernatant. A general note: A western blot detects proteins with antibodies after separation by electrophoresis.

Results are given in words; binding and its absence hold for the method and conditions named. Some results given as binding are weak or reduced against the parent protein; the word gives no strength.

B1: GKB101 (antibody, V domains shown)
VH: EVQLLESGGGLVQPGGSLRLSCAASGFTFSSYDMSWVRQAPGKGLEWVSAISSGGSSIYYADSVKGRFTISRDNSKNTLYLQMNSLRAEDTAVYYCARDVAWDMLGDFDYWGQGTLVTVSS
VL: QSVLTQPPSASGTPGQRVTISCTGSSSNIGSNYVYWYQQLPGTAPKLLIYANSHRPSGVPDRFSGSKSGTSASLAISGLRSEDEADYYCGAWDDSLSAYVFGGGTKLTV
For B1, the binding result is listed as “binds”.
